The other results are listed elsewhere or left out.
What was measured:
Assay in all cases: log2 fold change, soluble protein after heating vs DMSO (PISA); higher = thermal stabilisation; K562 lysate, 10 uM; active = over 0.2 and 3.5 SD of the protein, either way, in both replicates (recomputed)
[1] = compound: C1=CC=C(C=C1)[C@H](COC2=CC3=C(C=C2)NC(=O)N3)NC(=O)C4=CC=CN(C4=O)CC5=CC(=C(C=C5)F)F
Outline: (§1)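 K562 pellets were dounce-homogenised in PBS pH 7.4 containing 1 mM MgCl2, and the crude extract, at 1 mg/mL protein, was exposed to 10 μM compound for 30 min. Aliquots were heated for 3 min across 48°C-58°C, pooled, brought to 0.5% NP-40 at 4°C and spun at 21,000xg for 90 min, with the supernatant taken as soluble protein. TMTpro 16plex LC-MS/MS with equalised channel sums quantified that protein. Values are log-two fold changes in thermal stability relative to solvent controls, taken from duplicates.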

Protein sequences, listed by entry. Tags and fused reporters are not part of them. Lines headed by an entry give the natural chain unless they say otherwise; changes in a name come on top.
UniProt Q9NVR5: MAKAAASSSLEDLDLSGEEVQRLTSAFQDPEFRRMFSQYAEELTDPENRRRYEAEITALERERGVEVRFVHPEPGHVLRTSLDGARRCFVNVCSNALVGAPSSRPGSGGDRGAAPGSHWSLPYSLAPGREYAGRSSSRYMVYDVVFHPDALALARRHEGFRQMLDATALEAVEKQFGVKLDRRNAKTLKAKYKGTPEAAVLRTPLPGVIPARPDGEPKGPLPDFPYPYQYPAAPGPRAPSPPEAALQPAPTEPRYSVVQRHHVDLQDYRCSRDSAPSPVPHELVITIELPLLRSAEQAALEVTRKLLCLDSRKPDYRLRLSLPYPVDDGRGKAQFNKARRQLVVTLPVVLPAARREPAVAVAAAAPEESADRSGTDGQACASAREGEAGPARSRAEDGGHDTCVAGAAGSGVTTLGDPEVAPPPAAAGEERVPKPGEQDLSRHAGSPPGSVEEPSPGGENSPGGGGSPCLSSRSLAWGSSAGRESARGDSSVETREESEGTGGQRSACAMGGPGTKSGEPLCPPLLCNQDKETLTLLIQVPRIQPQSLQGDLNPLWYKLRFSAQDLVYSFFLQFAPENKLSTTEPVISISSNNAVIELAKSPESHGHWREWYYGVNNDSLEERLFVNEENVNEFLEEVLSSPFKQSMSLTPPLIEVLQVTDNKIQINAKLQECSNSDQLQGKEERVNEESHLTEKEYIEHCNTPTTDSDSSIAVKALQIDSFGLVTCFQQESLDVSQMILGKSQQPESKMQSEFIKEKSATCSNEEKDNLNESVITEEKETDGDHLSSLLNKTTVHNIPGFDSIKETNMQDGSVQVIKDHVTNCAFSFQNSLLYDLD
UniProt Q96LJ7: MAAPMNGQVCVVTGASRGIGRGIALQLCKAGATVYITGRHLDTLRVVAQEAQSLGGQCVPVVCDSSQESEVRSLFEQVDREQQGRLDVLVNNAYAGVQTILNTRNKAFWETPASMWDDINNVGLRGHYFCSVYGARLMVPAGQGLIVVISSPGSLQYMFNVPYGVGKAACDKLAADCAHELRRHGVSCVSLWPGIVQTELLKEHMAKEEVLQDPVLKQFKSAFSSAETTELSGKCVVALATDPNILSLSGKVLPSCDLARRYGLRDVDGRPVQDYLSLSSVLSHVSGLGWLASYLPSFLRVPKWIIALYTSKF
UniProt Q4LDG9: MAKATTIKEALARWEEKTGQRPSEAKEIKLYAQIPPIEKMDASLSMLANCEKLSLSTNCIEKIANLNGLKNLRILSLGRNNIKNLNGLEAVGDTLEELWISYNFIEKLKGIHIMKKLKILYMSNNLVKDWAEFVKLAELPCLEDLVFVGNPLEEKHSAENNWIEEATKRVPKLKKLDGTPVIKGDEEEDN
UniProt P00374: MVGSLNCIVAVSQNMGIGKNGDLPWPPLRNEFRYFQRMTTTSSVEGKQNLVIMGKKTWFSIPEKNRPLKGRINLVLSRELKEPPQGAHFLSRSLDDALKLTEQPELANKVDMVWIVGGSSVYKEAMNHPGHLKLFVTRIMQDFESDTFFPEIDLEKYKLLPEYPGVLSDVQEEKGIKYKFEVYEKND
UniProt O75937: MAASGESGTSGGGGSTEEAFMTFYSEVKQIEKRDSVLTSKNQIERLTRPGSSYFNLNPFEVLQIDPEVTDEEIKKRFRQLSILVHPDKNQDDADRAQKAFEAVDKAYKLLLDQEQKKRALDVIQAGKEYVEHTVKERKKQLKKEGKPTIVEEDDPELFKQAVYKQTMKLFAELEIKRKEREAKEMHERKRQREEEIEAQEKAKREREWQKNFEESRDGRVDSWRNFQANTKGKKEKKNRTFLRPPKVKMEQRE
UniProt Q9BTZ2: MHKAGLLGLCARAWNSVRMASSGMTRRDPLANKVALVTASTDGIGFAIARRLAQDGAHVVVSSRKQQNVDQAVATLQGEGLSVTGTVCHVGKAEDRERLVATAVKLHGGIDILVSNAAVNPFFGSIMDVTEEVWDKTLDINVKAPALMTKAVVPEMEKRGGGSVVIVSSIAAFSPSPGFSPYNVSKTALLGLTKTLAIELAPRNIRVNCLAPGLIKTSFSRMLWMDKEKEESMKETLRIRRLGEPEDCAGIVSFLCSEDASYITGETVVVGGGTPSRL
UniProt Q96JB1: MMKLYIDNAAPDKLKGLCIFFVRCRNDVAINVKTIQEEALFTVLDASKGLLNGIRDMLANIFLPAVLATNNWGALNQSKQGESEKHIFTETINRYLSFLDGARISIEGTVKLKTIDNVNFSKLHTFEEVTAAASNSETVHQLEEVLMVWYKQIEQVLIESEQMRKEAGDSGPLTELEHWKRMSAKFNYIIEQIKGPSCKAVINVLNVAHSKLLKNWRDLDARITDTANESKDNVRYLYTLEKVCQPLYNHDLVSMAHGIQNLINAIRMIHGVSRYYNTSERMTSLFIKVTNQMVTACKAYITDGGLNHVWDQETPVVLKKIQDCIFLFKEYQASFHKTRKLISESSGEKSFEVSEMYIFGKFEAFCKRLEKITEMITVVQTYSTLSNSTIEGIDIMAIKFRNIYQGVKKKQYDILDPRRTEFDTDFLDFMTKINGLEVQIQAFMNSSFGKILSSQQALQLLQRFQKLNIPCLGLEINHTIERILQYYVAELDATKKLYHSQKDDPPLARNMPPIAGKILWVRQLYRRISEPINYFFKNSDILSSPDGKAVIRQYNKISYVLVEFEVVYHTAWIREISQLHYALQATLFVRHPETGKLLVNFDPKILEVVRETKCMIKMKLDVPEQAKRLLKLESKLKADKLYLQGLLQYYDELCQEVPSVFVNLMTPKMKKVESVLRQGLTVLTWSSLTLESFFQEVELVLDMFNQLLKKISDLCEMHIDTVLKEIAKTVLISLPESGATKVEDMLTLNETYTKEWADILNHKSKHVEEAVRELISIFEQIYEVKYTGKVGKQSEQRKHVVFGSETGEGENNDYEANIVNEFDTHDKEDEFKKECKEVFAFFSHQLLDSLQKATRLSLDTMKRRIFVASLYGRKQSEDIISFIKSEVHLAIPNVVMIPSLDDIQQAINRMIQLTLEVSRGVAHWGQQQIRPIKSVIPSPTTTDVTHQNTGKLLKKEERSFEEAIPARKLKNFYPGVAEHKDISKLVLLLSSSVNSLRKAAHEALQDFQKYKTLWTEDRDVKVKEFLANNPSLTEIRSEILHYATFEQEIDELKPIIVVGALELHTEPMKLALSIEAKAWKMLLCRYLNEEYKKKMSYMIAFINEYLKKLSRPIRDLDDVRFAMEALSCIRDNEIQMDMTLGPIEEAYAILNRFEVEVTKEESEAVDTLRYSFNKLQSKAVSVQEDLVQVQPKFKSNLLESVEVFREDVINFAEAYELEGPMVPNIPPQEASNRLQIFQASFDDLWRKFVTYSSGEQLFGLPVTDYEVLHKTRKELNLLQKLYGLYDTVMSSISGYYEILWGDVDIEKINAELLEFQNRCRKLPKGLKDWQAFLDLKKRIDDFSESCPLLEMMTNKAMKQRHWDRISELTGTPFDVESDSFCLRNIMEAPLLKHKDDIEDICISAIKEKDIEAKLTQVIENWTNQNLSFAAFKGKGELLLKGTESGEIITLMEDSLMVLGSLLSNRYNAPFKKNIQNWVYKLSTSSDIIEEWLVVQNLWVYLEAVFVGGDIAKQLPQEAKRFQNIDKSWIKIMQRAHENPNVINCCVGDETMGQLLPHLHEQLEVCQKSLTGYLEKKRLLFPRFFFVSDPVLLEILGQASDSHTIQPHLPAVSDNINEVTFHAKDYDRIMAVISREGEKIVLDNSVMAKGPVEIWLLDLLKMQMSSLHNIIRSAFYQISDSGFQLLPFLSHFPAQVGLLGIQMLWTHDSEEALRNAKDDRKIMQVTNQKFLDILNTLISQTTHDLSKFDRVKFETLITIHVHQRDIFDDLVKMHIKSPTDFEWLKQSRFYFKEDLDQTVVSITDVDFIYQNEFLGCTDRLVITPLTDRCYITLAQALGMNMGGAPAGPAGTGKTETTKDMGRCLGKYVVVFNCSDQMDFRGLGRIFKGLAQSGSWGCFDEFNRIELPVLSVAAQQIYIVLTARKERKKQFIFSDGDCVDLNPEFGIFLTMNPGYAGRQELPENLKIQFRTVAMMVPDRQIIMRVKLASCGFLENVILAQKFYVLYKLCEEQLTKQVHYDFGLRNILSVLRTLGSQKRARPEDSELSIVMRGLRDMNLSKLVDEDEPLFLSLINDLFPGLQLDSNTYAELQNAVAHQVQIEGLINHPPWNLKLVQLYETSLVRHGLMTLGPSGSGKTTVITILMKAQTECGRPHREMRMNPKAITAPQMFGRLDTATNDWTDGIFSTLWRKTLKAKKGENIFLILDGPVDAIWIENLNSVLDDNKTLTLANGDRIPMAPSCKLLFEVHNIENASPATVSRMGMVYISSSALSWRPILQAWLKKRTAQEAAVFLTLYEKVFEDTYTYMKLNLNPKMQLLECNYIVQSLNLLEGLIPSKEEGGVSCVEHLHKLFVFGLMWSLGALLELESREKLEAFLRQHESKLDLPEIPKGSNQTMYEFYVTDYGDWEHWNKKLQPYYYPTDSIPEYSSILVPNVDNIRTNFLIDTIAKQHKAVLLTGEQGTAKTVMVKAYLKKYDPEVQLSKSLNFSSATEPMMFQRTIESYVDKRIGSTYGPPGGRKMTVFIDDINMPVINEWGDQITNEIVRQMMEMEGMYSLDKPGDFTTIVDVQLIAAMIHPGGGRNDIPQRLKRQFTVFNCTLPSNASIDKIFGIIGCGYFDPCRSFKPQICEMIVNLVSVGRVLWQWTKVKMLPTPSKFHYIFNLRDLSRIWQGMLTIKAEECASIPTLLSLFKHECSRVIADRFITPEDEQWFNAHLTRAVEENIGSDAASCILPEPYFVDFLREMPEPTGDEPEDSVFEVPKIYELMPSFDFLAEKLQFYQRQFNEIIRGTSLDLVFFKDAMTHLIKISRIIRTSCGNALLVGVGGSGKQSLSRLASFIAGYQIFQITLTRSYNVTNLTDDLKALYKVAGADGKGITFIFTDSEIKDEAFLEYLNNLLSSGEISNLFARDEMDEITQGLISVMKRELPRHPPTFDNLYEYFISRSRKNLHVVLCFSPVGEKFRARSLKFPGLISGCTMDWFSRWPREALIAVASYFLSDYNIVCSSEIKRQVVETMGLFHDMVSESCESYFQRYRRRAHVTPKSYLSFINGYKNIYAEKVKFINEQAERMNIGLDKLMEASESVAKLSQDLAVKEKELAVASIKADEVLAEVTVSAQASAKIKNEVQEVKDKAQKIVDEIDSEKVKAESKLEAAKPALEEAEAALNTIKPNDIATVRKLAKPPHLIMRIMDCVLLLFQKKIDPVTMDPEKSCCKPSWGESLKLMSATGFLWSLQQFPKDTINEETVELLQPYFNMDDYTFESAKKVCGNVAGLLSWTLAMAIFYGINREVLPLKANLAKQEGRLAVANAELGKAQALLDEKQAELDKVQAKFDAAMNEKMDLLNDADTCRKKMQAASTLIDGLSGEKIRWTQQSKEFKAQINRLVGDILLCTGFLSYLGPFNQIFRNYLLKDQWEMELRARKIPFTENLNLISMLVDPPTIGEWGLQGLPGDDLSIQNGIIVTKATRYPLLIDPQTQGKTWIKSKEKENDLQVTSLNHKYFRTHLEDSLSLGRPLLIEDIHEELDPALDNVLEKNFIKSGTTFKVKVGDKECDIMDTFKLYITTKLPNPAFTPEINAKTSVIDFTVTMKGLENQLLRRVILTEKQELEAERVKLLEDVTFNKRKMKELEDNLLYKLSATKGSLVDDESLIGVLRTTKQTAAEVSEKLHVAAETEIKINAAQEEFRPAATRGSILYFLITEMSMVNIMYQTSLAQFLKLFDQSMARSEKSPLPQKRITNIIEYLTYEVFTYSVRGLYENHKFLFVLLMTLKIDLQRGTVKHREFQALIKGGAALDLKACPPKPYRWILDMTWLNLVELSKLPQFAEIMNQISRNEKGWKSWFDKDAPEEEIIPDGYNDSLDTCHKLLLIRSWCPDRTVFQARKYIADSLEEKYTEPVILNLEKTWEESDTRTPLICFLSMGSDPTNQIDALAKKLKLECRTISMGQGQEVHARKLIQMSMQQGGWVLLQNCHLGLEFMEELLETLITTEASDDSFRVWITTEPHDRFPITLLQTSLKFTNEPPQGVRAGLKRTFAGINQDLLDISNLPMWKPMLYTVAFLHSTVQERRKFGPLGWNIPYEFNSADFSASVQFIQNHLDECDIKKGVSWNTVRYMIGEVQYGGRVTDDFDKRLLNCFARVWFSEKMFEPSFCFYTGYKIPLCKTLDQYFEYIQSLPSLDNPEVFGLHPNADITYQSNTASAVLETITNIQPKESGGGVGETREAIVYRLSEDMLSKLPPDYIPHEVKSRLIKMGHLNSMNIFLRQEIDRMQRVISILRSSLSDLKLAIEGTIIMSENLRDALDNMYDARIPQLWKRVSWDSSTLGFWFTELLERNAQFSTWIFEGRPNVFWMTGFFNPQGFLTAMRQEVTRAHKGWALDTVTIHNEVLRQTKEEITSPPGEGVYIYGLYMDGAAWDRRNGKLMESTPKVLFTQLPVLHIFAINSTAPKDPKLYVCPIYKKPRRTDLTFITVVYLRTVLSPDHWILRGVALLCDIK

[2] = compound: CC1=C(SC2=C1C(=N[C@H](C3=NN=C(N32)C)CC(=O)N)C4=CC=C(C=C4)Cl)C
Outline: as §1

[3] = compound: CC1=C2C(=CC=C1)N=C(N(C2=O)C3=CC=CC=C3C)CN4C=NC5=C(N=CN=C54)N
Outline: as §1

[4] = compound: Cc1sc2c(c1C)C(c1ccc(Cl)cc1)=N[C@@H](CC(=O)OC(C)(C)C)c1nnc(C)n1-2
Outline: as §1

[5] = compound: c1ccc([C@@H]2C[C@H]2NC2CCNCC2)cc1
Outline: as §1

Measured: log2 fold change

DNAAF2 (UniProt Q9NVR5)
inactive: [1] 0.04 | [2] -0.017 | [3] -0.014 | [4] -0.006 | [5] -0.021

DHRS1 (UniProt Q96LJ7)
inactive: [1] 0.15 | [2] -0.103 | [3] -0.015 | [4] 0.029 | [5] -0.107

DNAL1 (UniProt Q4LDG9)
inactive: [1] 0.121 | [2] 0.044 | [3] 0.043 | [4] 0.01 | [5] 0.126

DNAJC10 (UniProt Q8IXB1)
inactive: [1] 0.035 | [2] -0.013 | [3] -0.001 | [4] -0.035 | [5] -0.036

DHX30 isoform 2 (UniProt Q7L2E3)
inactive: [1] -0.015 | [2] 0.052 | [3] 0.026 | [4] 0.026 | [5] 0.018

DHFR (UniProt P00374)
inactive: [1] -0.024 | [2] 0.024 | [3] 0.016 | [4] 0.031 | [5] 0.021

Taken from above (2 entries):
DNAJC10 (UniProt Q8IXB1)
inactive: [1] 0.035 | [2] -0.013 | [3] -0.001 | [4] -0.035 | [5] -0.036

DHX30 isoform 2 (UniProt Q7L2E3)
inactive: [1] -0.015 | [2] 0.052 | [3] 0.026 | [4] 0.026 | [5] 0.018

(further entries)

DNAJC8 (UniProt O75937)
inactive: [1] -0.001 | [2] -0.007 | [3] -0.028 | [4] 0.01 | [5] 0.048

DHRS4 (UniProt Q9BTZ2)
inactive: [1] 0.056 | [2] 0.002 | [3] -0.003 | [4] 0.03 | [5] 0.012

DNAH8 (UniProt Q96JB1)
inactive: [1] -0.036 | [2] 0.131 | [3] 0.092 | [4] -0.174 | [5] -0.053
